In PubChem BioAssay AID540275 (National Center for Advancing Translational Sciences (NCATS), 2011):
Several values for one entry are separate records, joined by “and”; a condition that tells them apart may be missing. Equal entries are not always repeated. Screen size: about 320,000 compounds; about 620 (0.19%) were called active. The shares of active, inactive and inconclusive entries below differ from those in the screen. Cut-off read from the data, not from the text of the source: active = activation above about 80%; inconclusive = between about 30% and that limit; inactive = weaker than that.

Sequences of proteins named here, by UniProt entry; tags and fusion partners are left off.
UniProt Q8NER1, whole entry, looked up: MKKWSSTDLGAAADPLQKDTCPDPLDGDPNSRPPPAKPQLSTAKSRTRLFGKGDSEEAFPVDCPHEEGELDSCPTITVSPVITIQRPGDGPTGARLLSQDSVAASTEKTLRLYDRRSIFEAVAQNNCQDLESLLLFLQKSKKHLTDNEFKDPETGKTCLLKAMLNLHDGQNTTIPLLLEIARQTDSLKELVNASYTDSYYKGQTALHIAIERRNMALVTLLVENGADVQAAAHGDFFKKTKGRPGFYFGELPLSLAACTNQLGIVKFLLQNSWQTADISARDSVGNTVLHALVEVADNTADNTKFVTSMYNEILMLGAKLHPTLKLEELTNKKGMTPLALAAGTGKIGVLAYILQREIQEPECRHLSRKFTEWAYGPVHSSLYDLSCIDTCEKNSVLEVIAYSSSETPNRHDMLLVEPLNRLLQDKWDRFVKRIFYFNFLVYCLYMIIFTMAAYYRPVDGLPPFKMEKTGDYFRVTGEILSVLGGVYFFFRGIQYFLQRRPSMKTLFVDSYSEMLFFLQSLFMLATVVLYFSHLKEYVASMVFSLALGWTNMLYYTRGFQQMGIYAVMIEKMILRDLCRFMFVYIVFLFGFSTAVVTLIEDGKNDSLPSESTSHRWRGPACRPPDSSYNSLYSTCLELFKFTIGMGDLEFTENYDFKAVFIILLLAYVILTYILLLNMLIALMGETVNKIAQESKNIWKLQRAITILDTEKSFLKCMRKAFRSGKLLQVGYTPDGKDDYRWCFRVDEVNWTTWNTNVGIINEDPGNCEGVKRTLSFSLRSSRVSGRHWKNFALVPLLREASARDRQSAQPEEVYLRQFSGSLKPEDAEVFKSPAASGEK

Target: Transient receptor potential cation channel subfamily V member 1 (Homo sapiens) (UniProt Q8NER1)
Assay: HTS Assay for Compounds that Act as Agonists of the Vanilloid Receptor 1; note: 0% is about no effect
Settings: TRPV1-expressing cells, Fluo-8 calcium influx, agonist mode; at 8.33 µM, active compounds read high
Outline: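 Fluo-8 calcium influx in TRPV1-expressing cells, kinetic read (ex 480/em 520 nm). Compound added and read 3 min for agonist activity, followed by capsaicin at EC20 final and 2 min further read for enhancement.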

Row | SMILES | activation
1 | COc1ccccc1NC(=S)NC(C)=O | inactive: 0.551%
2 | CCC(=O)N1CCN(c2ccc(NC(=O)c3ccc([N+](=O)[O-])o3)cc2)CC1 | inactive: -2.48%
3 | O=C(CNS(=O)(=O)c1ccc(F)cc1)Nc1ccc(C(F)(F)F)cc1 | inconclusive: 37.9%
4 | NC(=O)C1(N2CCCCC2)CCN(CC(=O)Nc2ccccc2Sc2ccccc2)CC1 | inconclusive: 66.6%
5 | COc1cccc(NC(=O)C2CCN(C(=O)[C@@H]3Cc4ccccc4CN3C(=O)OC(C)(C)C)CC2)c1 | inconclusive: 32.7%
6 | CCOc1ccccc1CNC(=O)c1cc2occc2n1C | inconclusive: 30.3%
7 | COc1ccc(N(C(=O)c2snc(C(N)=O)c2N)C(C(=O)NC2CCCC2)c2ccco2)c(OC)c1 (stereo unspecified) | inconclusive: 36.4%
8 | CC(CC(=O)Nc1cc(S(=O)(=O)N2CCOCC2)ccc1OCC(F)(F)F)c1ccccc1 (stereo unspecified) | inconclusive: 36.1%
9 | COc1cc(NC(=O)Nc2ccc(Cl)c(Cl)c2)c(C(=O)O)cc1OC | inactive: -1.53%
10 | Cc1ccc(O)c(NC(=O)CSc2ccc(Cl)cc2)c1 | inconclusive: 34.1%
11 | CCOc1ccc(OCc2ccc(C(=O)NN)o2)cc1 | inconclusive: 38.7%
12 | O=C(N/N=C/c1ccc([N+](=O)[O-])o1)c1cc2ccccc2o1 | inactive: 12.4%
13 | COCc1c(N)c(C)nc(Cl)c1C#N | inconclusive: 48%
14 | Cc1ccc(C)c(NC(=O)CN(C)C(=O)c2ccc3[nH]c4c(c3c2)CC(C)CC4)c1 (stereo unspecified) | inactive: 2.58%
15 | O=C(CSc1ccc(-c2ccc(F)cc2)nn1)NC1CCCCC1 | inactive: 3.85%
16 | Cc1nn(-c2ccccc2)c2c1c(C)c(CCC(=O)N1CCOCC1)c(=O)n2C | inconclusive: 67.6%
17 | COc1ccc(C/C(N)=N/OC(=O)c2cccc([N+](=O)[O-])c2)cc1 | inactive: 4.36%
18 | O=[N+]([O-])c1ccc(-c2nc(-c3cccs3)c(-c3cccs3)[nH]2)cc1 | inactive: 8.31%
19 | O=[N+]([O-])c1cc(S(=O)(=O)/N=C(/c2ccccc2)N2CCOCC2)ccc1Cl | inconclusive: 72.5%

Of the compounds above, 3 have fluorine.
Row | SMILES | activation
3 | O=C(CNS(=O)(=O)c1ccc(F)cc1)Nc1ccc(C(F)(F)F)cc1 | inconclusive: 37.9%
8 | CC(CC(=O)Nc1cc(S(=O)(=O)N2CCOCC2)ccc1OCC(F)(F)F)c1ccccc1 (stereo unspecified) | inconclusive: 36.1%
15 | O=C(CSc1ccc(-c2ccc(F)cc2)nn1)NC1CCCCC1 | inactive: 3.85%

Remaining list, next part:

Row | SMILES | activation
20 | O=C(C#Cc1ccccc1)Nc1ccccc1F | inconclusive: 50.9%
21 | COc1cc(/C=N/NC(=O)CNC(=O)c2ccc3c(c2)OCCO3)ccc1O | inconclusive: 31.9%
22 | COc1cc(-c2nnc3sc(C4CCCCC4)nn23)cc(OC)c1OC | inconclusive: 52.9%
23 | CCCCn1c(N)c(NCC(C)C)c(=O)[nH]c1=O | inactive: -0.535%
24 | COc1ccc(-c2ccc(OC)c([C@H]3[C@@H]4C=CCC[C@@]4(C)C(=O)N3Cc3ccccc3)c2)cc1OC | inconclusive: 43.6%
25 | CCS(=O)(=O)Nc1ccc(C2=NN(C(=O)c3ccccc3)C(c3cccs3)C2)cc1 (stereo unspecified) | inactive: 7.6%
26 | COc1ccc(CNC(=O)COC(=O)c2c(-c3c(F)cccc3Cl)noc2C)cc1OC | inconclusive: 47.5%
27 | Cc1ccc(-c2cc(C(=O)Nc3cccnc3)[nH]n2)c(O)c1C | inconclusive: 61.8%
28 | CN(c1ccccc1)S(=O)(=O)c1cccc(C(=O)NCCc2ccc(O)c(O)c2)c1 | inconclusive: 56.9%
29 | Cc1c(C(=O)c2ccc(F)cc2)c2ccccn2c1CCc1ccccn1 | inactive: 7.77%
30 | CN1CCc2cccc3c2[C@H]1Cc1ccc(O)c(O)c1-3 | inactive: 11.7% and inactive: 19.7%
31 | CC(=O)N1CCN(c2ccc(NC(=O)c3ccc(C(C)(C)C)cc3)cc2)CC1 | inconclusive: 79.3%
32 | Cc1nc2ccccc2cc1OCc1ccccc1 | inconclusive: 70.1%
33 | CCCOc1ccc(CC(=O)NCCc2ccccc2)cc1OC | inconclusive: 43.8%
34 | CC(C)(C)NC(=O)c1oc2ccccc2c1COc1ccccc1 | inactive: -6.84%
35 | CCOc1ccc(OCCSc2nc3ccccc3[nH]2)cc1 | inconclusive: 45%
36 | CCOC(=O)c1cc(-c2ccc(N3CCOCC3)cc2)nn1-c1ccccc1 | inactive: 25.1%
37 | COc1ccc(CCC(=O)N2CCCC(Nc3ccc(OC)cc3)C2)cc1 (stereo unspecified) | inconclusive: 70.3%
38 | CC1C/C(=N\NC(=S)NC(C)C)CC(C)(C)C1 (stereo unspecified) | inactive: 18.6%

Row | SMILES | activation
39 | Cc1cccc(C(=O)NC2CCN(S(=O)(=O)c3ccccc3F)CC2)c1 | inconclusive: 41.8%
40 | Cc1cc(Cl)ccc1OCCCC(=O)N1CCOCC1 | inconclusive: 71.2%
41 | CCc1nc(Nc2ccc(OC)cc2OC)c2oc3ccccc3c2n1 | inconclusive: 61.5%
42 | COc1ccccc1NC(=O)Nc1ccc2c(c1)CCC2 | inconclusive: 34.4%
43 | CC(C)CN(C(=O)CC1OC(=O)c2ccccc21)c1c(N)n(Cc2ccccc2)c(=O)[nH]c1=O (stereo unspecified) | inactive: -1.61%
44 | Cc1ccc(NC(=O)c2cc3ccccc3o2)cc1 | active: 102%
45 | CCc1c(C)sc(NC(=O)c2cccs2)c1C(N)=O | inconclusive: 33%
46 | CCN(CC(=O)NCc1cccs1)C(=O)c1ccc(-c2cccc(C(F)(F)F)c2)o1 | inconclusive: 36.2%
47 | O=C(NC1CCCCC1)c1ccc(-c2ccccc2[N+](=O)[O-])o1 | inconclusive: 45.2%
48 | CCOc1cccc2sc(=NC(=O)CCS(=O)(=O)c3ccc(F)cc3)n(C)c12 | inconclusive: 32.1%
49 | CCOC(=O)[C@H]1[C@H]2COc3cc(OC)ccc3[C@@H]2N2C(=O)c3cc(C)ccc3NC(=O)[C@@]12C | inconclusive: 53%
50 | CC(=O)N1CCN(c2nc(C)nc3sc4c(c23)CCC(C)C4)CC1 (stereo unspecified) | inconclusive: 38.1%
51 | NC(=O)c1ccc(C(F)(F)F)n(Cc2c(Cl)cccc2Cl)c1=O | inconclusive: 60.6%
52 | OCc1nc2ccccc2n1CCCOc1ccc(Br)cc1 | inconclusive: 60%
53 | Cc1ccsc1/C=C1/NC(=O)N(Cc2ccc(F)cc2)C1=O | inconclusive: 31.2%
54 | O=C(CN1C(=O)NC2(CCCCC2)C1=O)Nc1ccc2c(c1)CCC2 | inconclusive: 36.7%
55 | O=C(NCc1ccccc1)Nc1cccn(Cc2ccc(F)cc2)c1=O | inconclusive: 66.9%
56 | O=C(NCc1ccccc1)[C@@H]1C[C@H]1[C@@H](NP(=O)(c1ccccc1)c1ccccc1)c1ccccc1 | active: 90.7%
